Here are results for 38 compounds from PubChem BioAssay AID2685 (National Center for Advancing Translational Sciences (NCATS), 2010).

The other results are listed elsewhere or left out. The main result of the screen is listed elsewhere. These columns were measured beside it and carry no call. The list favours compounds with an active or inconclusive main result. Words in brackets tell the shape of the fitted curve; partial curves, single points and poor fits give uncertain potencies.

The nature of this assay: qHTS Assay for Lipid Storage Modulators in Drosophila S3 Cells.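 On cell number change: cells counted by Cell Tracker Red CMTPX staining in the red channel.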 The note with it: BODIPY lipid droplet fluorescence, 18-24 h; for cell number change: measured here: cell count max response, cells fed with added oleic acid. The essentials: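 Drosophila S3 cells loaded with oleic acid (400 uM, as added) and compounds at several concentrations; lipid droplets imaged by 488-nm laser-scanning cytometry, 500–530 nm intensity and object ratio to cell channel. Percent activity normalized to 20 uM Triacsin C.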

Setting [1] is: measured here: lipid fluorescence (Fed channel) AC50, cells fed with added oleic acid.
[2] abbreviates: measured here: cell number channel AC50, cells fed with added oleic acid.

Take `Cc1nc(N2CCc3ccccc3C2)[nH]c(=O)c1CCC(C)C`: the cell number change was found to be 4.48%. The concentration at half-maximal activity (AC50) under setting [1] is 29.1 µM [rising, single point].
Consider `Cc1nnc2n(Cc3ccccc3)c(=O)c3c4c(sc3n12)CCCC4`, for which the cell number change is -41.7%. Also, the AC50 under setting [2] is 36.6 µM [falling, partial curve, poor fit]. Moreover, the concentration at half-maximal activity (AC50) under setting [1] was 32.6 µM [falling, single point].
As for `Cc1ccc(C)n1CCN1CCN(C(=O)c2ccco2)CC1`, the cell number change was determined as 7.67%. The AC50 under setting [2] is 0.92 µM [falling, full curve].
Turning to `CCn1nnnc1SCC(=O)NNC(=O)C1CCCCC1`, the cell number change was -42.6%. Moreover, the concentration at half-maximal activity (AC50) under setting [2] was 16.4 µM [falling, single point]. The half-maximal activity concentration (AC50) under setting [1] is 29.1 µM [falling, single point].
On to `COc1ccc2cc(C(=O)Nc3ccc(Cl)cc3)sc(=O)c2c1OC`, for which the cell number change was -22.4%. The AC50 under setting [1] is 14.6 µM [falling, single point].
Regarding `Cc1nc2ccc(NC(=O)CS(=O)(=O)c3ccc(F)cc3)cc2s1`, under setting [2], the half-maximal activity concentration (AC50) is 2.31 µM [rising, single point].
Take `CCCOC(=O)c1sc2nc3c(cc2c1N)C(=O)CCC3`: the cell number change turned out to be 14.2%. Also, the AC50 under setting [1] is 6.51 µM [rising, partial curve].
For the compound `O=C(NNS(=O)(=O)c1ccccc1)C1CCCCC1`, the cell number change was 9.21%. Further, under setting [1], the AC50 was 6.31 µM [rising, single point].
In the case of `O=C(COn1nnc2ccc(Cl)cc21)Nc1ccc(F)cc1`, the cell number change is -19.3%. In addition, the concentration at half-maximal activity (AC50) under setting [1] was 0.00517 µM [falling, full curve, poor fit].
Turning to `Cc1ccc(C(=O)Nc2ccccc2N2CCCCC2)cc1[N+](=O)[O-]`, the cell number change was -2.6%. The half-maximal activity concentration (AC50) under setting [2] is 0.116 µM [rising, full curve, poor fit].
With `O=C(CNC(=O)c1ccco1)Nc1ccc(S(=O)(=O)N2CCCC2)cc1`, the cell number change is -37.9%. Also, the AC50 under setting [2] is 29.1 µM [falling, single point].
`NC(=O)N/N=C/c1ccc(N2CCOCC2)s1`: the cell number change is -7.66%. Besides, the AC50 under setting [1] is 29.1 µM [rising, single point].
On to `CCOc1ccc(Nc2c3c(nc4ncnn24)CC(C)CC3)cc1` (stereo unspecified), for which the cell number change is 2.36%. Moreover, under setting [2], the half-maximal activity concentration (AC50) is 1.46 µM [falling, partial curve]. Moreover, under setting [1], the AC50 was 0.731 µM [falling, full curve].
As for `CC(C)CC(=O)Nc1ccnn1C1CCN(C(=O)c2ccc(F)cc2Cl)CC1`, the cell number change was found to be 2.12%. The AC50 under setting [1] is 0.146 µM [rising, full curve, poor fit].
Consider `O=C(Cn1c(COc2ccc(Cl)cc2)nc2ccccc21)NCC(F)(F)F`, for which the cell number change is -0.104%. Moreover, the AC50 under setting [1] was 0.517 µM [rising, single point].
Take `CCOc1ccc(/C=N/n2cnnc2)cc1`: the cell number change stood at 2.9%. The half-maximal activity concentration (AC50) under setting [1] is 18.4 µM [rising, single point].
As for `CCCCNc1c2c3c(cccc3n(C)c1=O)C(=O)c1ccccc1-2`, the cell number change was -95.8%. The concentration at half-maximal activity (AC50) under setting [2] is 16.4 µM [falling, single point]. Under setting [1], the AC50 was 18.4 µM [falling, single point].
Turning to `CSc1ccccc1NC(=O)c1cc(C(C)C)on1`, the cell number change came to 41.1%. Moreover, under setting [2], the concentration at half-maximal activity (AC50) was 32.6 µM [rising, single point].
Turning to `CSc1nsc(SCC(=O)Nc2cccc(C(=O)O)c2)n1`, the cell number change was -4.35%.
`CCOc1ccc(S(=O)(=O)Nc2ccc(C(=O)NCCCN3CCCC3=O)cc2)cc1`: the cell number change is 34.9%. The AC50 under setting [2] is 8.2 µM [rising, partial curve, poor fit].
`COc1ccc(N2CC(C)Cn3c2nc2c3c(=O)[nH]c(=O)n2C)cc1` (stereo unspecified): the cell number change was -19.8%.
Consider `CCOC(=O)C1CCN(C(=O)CN(c2cccc(C(F)(F)F)c2)S(C)(=O)=O)CC1`, for which the cell number change was -1.76%.
Take `O=C(N/N=C/c1cn(-c2ccccc2)nc1-c1cccnc1)c1ccc(F)cc1`: the cell number change came to 15.6%. For the same compound, the concentration at half-maximal activity (AC50) under setting [1] was 0.00517 µM [rising, full curve].
For `CCC(C)NC(=O)CSc1nnc(-c2ccoc2C)n1CC1CCCO1` (stereo unspecified), the cell number change turned out to be 7.81%. Further, under setting [1], the AC50 is 0.92 µM [rising, full curve, poor fit].
With `N#Cc1ccc(NC(=O)Nc2ccc(Cl)cc2)cc1`, the cell number change was -126%. In addition, the AC50 under setting [2] was 20.6 µM [falling, partial curve]. For the same compound, the AC50 under setting [1] is 16.4 µM [falling, partial curve].
As to `Cc1cc(C)cc(N(CC(=O)NCc2ccco2)C(=O)CCC(=O)Nc2ccccn2)c1`, the cell number change was determined as 32.4%. Also, under setting [2], the AC50 is 11.6 µM [rising, partial curve, poor fit].
Consider `Cc1cc(C)n2cc(CSc3ccc(Cl)cc3)nc2n1`, for which the cell number change was found to be 0.32%. The AC50 under setting [2] was 0.116 µM [falling, full curve, poor fit]. Under setting [1], the AC50 is 0.58 µM [falling, single point].
As to `COc1ccc(N=c2oc3cc(O)ccc3cc2C(=O)NCC2CCCO2)cc1` (stereo unspecified), the cell number change turned out to be 1.27%. In addition, the concentration at half-maximal activity (AC50) under setting [1] was 0.146 µM [falling, full curve, poor fit].
For `O=C(OC1CCOC1=O)c1ccc(Cl)c(S(=O)(=O)N2CCCCC2)c1` (stereo unspecified), the concentration at half-maximal activity (AC50) under setting [1] is 6.51 µM [falling, single point].
Turning to `O=C(Nc1ccc(F)cc1)c1ccc(-n2ccnc2)nc1`, the cell number change stood at 36.7%. In addition, the concentration at half-maximal activity (AC50) under setting [2] is 32.6 µM [rising, single point]. The AC50 under setting [1] is 18.4 µM [rising, single point].
For `COc1ccc(-c2csc(NC(=O)c3ccoc3C)n2)cc1`, the cell number change was found to be 5.08%.
Consider `CCc1sc(NS(C)(=O)=O)nc1-c1ccccc1`, for which the cell number change came to 49.4%. Also, the AC50 under setting [2] is 11.6 µM [rising, partial curve, poor fit]. The AC50 under setting [1] was 14.6 µM [rising, partial curve].
Turning to `Fc1ccc(-c2nnc(CSc3nnc(-c4cccs4)o3)o2)cc1`, the cell number change came to 6.66%. Moreover, the AC50 under setting [1] was 0.58 µM [falling, single point].
In the case of `CC(C)C(NC(=O)c1c(F)cccc1F)C(=O)N1CCN(S(=O)(=O)c2ccc(F)cc2)CC1` (stereo unspecified), the half-maximal activity concentration (AC50) under setting [1] was 1.03 µM [rising, full curve, poor fit].
Consider `CCOC(=O)c1ccc(Nc2nnc(C(C)(C)C)c(=O)[nH]2)cc1`, for which the cell number change was -20.2%. Further, under setting [1], the AC50 is 0.0259 µM [falling, full curve, poor fit].
As to `COc1ccc(Br)cc1CN(C)C(=O)c1cnc(C)cn1`, the cell number change amounted to 17.4%. Besides, the half-maximal activity concentration (AC50) under setting [1] is 2.06 µM [rising, single point].
With `Cc1cc(C)cc(C(=O)NCC(=O)OCC(=O)N(C)C2CCS(=O)(=O)C2)c1` (stereo unspecified), the cell number change is -6.58%. Moreover, under setting [1], the AC50 was 4.11 µM [falling, single point].
As to `O=C(Nc1nnc(C2CC2)s1)C1CCCCN1S(=O)(=O)c1ccccc1` (stereo unspecified), the AC50 under setting [2] is 2.31 µM [rising, single point].

The term AC50 denotes the concentration giving half of the maximal activity seen. Low values mean activity at low concentration, high ones activity only at high concentration.
